Our source for the binding values is article PMC12752504.

Chains of the proteins cited; added tags and fusions are not shown.
UniProt Q8NFD5: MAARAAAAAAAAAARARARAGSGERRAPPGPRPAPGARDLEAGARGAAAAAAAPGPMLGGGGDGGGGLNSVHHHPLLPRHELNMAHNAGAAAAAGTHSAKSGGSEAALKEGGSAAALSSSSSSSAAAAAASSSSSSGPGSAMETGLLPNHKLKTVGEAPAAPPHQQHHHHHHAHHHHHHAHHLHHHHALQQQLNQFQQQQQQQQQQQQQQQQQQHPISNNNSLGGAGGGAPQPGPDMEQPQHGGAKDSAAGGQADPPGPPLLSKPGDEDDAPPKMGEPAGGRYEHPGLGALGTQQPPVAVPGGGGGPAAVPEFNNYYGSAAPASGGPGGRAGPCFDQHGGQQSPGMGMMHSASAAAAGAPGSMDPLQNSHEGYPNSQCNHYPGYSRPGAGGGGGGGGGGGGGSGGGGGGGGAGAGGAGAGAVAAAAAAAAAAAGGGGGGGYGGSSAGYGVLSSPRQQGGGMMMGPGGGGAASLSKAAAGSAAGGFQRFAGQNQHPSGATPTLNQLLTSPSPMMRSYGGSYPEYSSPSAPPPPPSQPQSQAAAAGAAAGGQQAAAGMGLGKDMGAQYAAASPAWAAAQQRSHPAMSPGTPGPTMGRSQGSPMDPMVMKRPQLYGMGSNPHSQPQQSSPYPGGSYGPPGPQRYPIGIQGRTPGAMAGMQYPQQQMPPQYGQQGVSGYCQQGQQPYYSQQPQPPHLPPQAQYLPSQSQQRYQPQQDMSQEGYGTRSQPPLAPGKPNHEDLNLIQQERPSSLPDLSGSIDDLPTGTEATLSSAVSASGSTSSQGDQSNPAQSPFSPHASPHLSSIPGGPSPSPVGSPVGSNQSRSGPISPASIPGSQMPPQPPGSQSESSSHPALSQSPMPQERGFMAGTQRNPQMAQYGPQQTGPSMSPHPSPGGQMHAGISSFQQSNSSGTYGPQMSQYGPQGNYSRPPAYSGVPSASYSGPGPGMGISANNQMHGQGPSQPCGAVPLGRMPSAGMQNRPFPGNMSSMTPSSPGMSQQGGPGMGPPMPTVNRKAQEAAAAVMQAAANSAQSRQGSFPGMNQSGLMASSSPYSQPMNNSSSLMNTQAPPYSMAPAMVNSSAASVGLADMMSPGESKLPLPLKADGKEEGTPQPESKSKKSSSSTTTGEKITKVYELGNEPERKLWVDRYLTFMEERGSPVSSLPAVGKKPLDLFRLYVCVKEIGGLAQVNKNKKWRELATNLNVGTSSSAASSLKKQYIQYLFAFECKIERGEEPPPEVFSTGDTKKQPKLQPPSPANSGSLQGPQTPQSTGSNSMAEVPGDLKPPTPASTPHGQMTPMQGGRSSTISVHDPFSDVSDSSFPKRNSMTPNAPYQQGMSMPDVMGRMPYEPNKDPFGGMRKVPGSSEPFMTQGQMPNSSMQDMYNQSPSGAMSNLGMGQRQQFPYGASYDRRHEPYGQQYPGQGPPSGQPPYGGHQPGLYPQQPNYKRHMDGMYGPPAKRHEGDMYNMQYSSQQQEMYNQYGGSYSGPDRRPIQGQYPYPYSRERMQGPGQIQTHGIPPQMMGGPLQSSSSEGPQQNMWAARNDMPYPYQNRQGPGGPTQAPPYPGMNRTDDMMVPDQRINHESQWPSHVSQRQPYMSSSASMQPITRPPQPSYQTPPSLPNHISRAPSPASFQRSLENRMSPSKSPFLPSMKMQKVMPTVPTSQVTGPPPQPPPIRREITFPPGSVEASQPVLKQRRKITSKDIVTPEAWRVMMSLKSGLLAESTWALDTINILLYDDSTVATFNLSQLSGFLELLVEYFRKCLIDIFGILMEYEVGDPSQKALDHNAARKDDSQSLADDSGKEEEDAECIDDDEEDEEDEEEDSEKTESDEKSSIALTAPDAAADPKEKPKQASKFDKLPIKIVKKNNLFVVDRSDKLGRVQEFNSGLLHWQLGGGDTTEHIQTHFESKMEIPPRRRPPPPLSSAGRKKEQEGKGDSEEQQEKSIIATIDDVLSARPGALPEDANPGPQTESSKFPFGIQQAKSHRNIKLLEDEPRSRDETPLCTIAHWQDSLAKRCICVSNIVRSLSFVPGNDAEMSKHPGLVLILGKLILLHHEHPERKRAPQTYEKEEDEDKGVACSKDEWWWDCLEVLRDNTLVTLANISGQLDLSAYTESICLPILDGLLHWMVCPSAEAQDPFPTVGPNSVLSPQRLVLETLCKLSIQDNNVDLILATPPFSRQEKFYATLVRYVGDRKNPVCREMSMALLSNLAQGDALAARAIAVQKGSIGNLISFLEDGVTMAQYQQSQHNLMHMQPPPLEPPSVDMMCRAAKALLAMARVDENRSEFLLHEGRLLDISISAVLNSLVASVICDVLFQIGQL

These are yes or no findings as the source states them, for the method shown. Binding seen in cells or lysates may run through a third protein. Some binding calls cover weakened binding; strength is not graded here.

This test addresses ARID1B (human (endogenous in hiPSC-derived day 5 cells)) (UniProt Q8NFD5). Nature of the test: co-IP; anti-ARID1B antibody on Protein A Dynabeads incubated with 100 ug nuclear extract of SALL4-WT cells at day 5, 3 h at 4°C; washed five times with Buffer C (400 mM NaCl); immunoblot for SALL4; IgG as negative control.

B1: SALL4B (protein, UniProt Q9UJQ4-2 1-616)
chain: MSRRKQAKPQHINSEEDQGEQQPQQQTPEFADAAPAAPAAGELGAPVNHPGNDEVASEDEATVKRLRREETHVCEKCCAEFFSISEFLEHKKNCTKNPPVLIMNDSEGPVPSEDFSGAVLSHQPTSPGSKDCHRENGGSSEDMKEKPDAESVVYLKTETALPPTPQDISYLAKGKVANTNVTLQALRGTKVAVNQRSADALPAPVPGANSIPWVLEQILCLQQQQLQQIQLTEQIRIQVNMWASHALHSSGAGADTLKTLGSHMSQQVSAAVALLSQKAGSQGLSLDALKQAKLPHANIPSATSSLSPGLAPFTLKPDGTRVLPNVMSRLPSALLPQAPGSVLFQSPFSTVALDTSKKGKGKPPNISAVDVKPKDEAALYKHKCRSSLPSTFIRAPPTYVKVEVPGTFVGPSTLSPGMTPLLAAQPRRQAKQHGCTRCGKNFSSASALQIHERTHTGEKPFVCNICGRAFTTKGNLKVHYMTHGANNNSARRGRKLAIENTMALLGTDGKRVSEIFPKEILAPSVNVDPVVWNQYTSMLNGGLAVKTNEISVIQSGGVPTLPVSLGATSVVNNATVSKMDGSQSGISADVEKPSATDGVPKHQFPHFLEENKIAVS
As for B1, the binding entry is given as “binds”.
